# PubChem BioAssay AID1259424, University of Nebraska Medical Center – 2018
# Aim: 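Find knockdowns that reproduce the expression shifts seen after KSR1 loss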 (primary screen)
# Cells: human HCT116 colon cancer cells
# Knock-down reagent: siRNA pool against human genes, 50 nM
# Read-out: 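Log2 levels of six mRNAs (branched-DNA multiplex), adjusted by two reference genes and the non-targeting median, then scored against the average KSR1 knockdown pattern as Pearson r and euclidean distance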
# Reading the numbers: mean correlation with KSR1 profile and KSR1 correlation: higher = expression change more like KSR1 knockdown; mean distance from KSR1 profile: higher = expression change less like KSR1 knockdown
# In all, the deposit lists about 14,000 reagents; below is a random part of them. 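Higher correlation or smaller distance means closer resemblance to KSR1 loss; control wells, including KSR1 knockdowns, recur on many plates.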 Not given: the time to read-out.
target gene,mean correlation with KSR1 profile,mean distance from KSR1 profile,"KSR1 correlation, replicate 1","KSR1 correlation, replicate 2","KSR1 correlation, replicate 3"
UNC93A,-0.219,1.59,-0.168,-0.32,-0.265
EHF,0.188,3.05,0.328,0.404,0.00287
PIK3R1,0.792,2.32,0.917,0.622,0.592
FZR1,-0.407,2.86,-0.555,-0.307,-0.355
GP2,0.782,1.81,0.638,0.712,0.752
LATS1,0.759,2.21,0.815,0.789,0.51
ZBTB5,-0.682,2.42,-0.491,-0.877,-0.488

Part of the list above, reformatted.
target gene | mean correlation with KSR1 profile | mean distance from KSR1 profile | KSR1 correlation, replicate 1 | KSR1 correlation, replicate 2 | KSR1 correlation, replicate 3
UNC93A | -0.219 | 1.59 | -0.168 | -0.32 | -0.265
EHF | 0.188 | 3.05 | 0.328 | 0.404 | 0.00287

Next records follow:
target gene,mean correlation with KSR1 profile,mean distance from KSR1 profile,"KSR1 correlation, replicate 1","KSR1 correlation, replicate 2","KSR1 correlation, replicate 3"
NDUFAF4,0.75,0.985,0.684,0.217,0.72
OR52A1,0.898,1.85,0.905,0.908,0.902
CHI3L2,-0.217,2.11,-0.582,-0.378,0.513
MINDY3,0.505,1.31,0.396,0.423,0.133
GNL3LP1,0.794,1.26,0.868,0.801,0.546
CCDC106,-0.349,2.23,-0.622,-0.671,-0.491
SCGB3A2,-0.131,1.31,0.188,-0.221,0.0184
CECR2,-0.0934,3.06,-0.228,-0.192,-0.459
PRKD3,-0.134,3.83,0.142,-0.135,-0.336
NDNF,0.0585,1.78,0.493,-0.00952,-0.0137
INPP1,0.583,1.22,0.592,0.531,0.359
ALS2,0.46,1.07,0.36,0.542,0.492
DYSF,-0.367,2.45,-0.24,-0.348,-0.499
